Article PMC8579453
Results are given in words; binding and its absence hold for the method and conditions named. In cells and extracts the contact can be indirect.

Protein sequences, listed by entry. Tags and fused reporters are not part of them. Residues count along the entry.
UniProt P10912, residues 19-638: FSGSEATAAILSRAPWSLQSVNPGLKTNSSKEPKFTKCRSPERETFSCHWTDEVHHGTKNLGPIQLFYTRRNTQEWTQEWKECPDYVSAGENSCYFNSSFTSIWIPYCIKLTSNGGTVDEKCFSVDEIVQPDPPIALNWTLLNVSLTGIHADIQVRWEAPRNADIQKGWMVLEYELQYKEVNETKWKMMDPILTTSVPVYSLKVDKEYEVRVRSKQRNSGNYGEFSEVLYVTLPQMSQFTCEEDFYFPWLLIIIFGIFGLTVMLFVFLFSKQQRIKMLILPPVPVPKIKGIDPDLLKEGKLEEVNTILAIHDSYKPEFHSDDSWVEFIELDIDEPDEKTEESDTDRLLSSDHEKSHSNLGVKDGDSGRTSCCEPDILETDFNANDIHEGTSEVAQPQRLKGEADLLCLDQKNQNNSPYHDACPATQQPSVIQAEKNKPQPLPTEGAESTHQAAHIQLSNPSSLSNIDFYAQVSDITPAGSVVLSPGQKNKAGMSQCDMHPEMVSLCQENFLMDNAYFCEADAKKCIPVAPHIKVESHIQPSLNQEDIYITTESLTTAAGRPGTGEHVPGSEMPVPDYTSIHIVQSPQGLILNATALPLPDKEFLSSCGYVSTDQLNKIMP
UniProt P35869, residues 11-848: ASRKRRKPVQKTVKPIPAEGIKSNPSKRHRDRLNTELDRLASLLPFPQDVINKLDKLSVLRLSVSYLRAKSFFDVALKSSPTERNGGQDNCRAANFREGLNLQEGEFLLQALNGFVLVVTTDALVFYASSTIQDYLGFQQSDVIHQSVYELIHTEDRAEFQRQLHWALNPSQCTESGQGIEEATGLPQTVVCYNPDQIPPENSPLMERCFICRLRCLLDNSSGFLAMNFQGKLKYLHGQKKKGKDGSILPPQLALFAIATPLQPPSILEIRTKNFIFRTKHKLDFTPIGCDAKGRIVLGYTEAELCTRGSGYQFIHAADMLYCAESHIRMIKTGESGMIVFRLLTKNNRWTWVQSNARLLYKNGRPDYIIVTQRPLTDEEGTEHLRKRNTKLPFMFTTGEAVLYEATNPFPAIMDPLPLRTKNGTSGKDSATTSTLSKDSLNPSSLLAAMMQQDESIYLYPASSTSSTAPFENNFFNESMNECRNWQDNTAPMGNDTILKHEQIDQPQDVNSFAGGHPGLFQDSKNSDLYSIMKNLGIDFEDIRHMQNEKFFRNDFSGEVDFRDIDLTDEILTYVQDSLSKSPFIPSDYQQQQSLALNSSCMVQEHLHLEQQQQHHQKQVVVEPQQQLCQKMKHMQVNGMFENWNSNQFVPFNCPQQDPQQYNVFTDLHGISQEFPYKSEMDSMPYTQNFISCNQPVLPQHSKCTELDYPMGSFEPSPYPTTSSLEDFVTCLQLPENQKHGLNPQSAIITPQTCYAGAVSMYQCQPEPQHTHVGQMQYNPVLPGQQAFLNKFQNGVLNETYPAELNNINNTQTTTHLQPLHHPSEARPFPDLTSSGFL

Biological target: growth hormone receptor (human hepatocytes) (human (endogenous in human hepatocytes)) (UniProt P10912)
Assay: co-IP; human hepatocytes with the AHR ligand Tapinarof, harvested after 24 hours; IP with Beyotime's kit, product verified by Western blot; bait not stated

binding: no binding
Substance: AHR (human hepatocytes) (from UniProt P35869 11-848)
